The assay addresses SsgA, bacterial two-hybrid (BACTH) fusion. In words: two-hybrid; bacterial two-hybrid (BACTH) in E. coli BTH101.

These are yes or no findings as the source states them, for the method shown. Binding calls can cover weak binding; strength is not graded here. Tags and fused reporters may be left off the sequences shown.

B1: SsgB, wild type, bacterial two-hybrid (BACTH) fusion (protein, UniProt Q9L268 1-137)
chain: MNTTVSCELHLRLVVSSESSLPVPAGLRYDTADPYAVHATFHTGAEETVEWVFARDLLAEGLHRPTGTGDVRVWPSRSHGQGVVCIALSSPEGEALLEAPARALESFLKRTDAAVPPGTEHRHFDLDQELSHILAES
As for B1, the binding result is listed as “binds”.
